Data source: PubChem BioAssay AID602196 (INSERM, 2012)
Purpose: 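Modifiers of cisplatin sensitivity in A549 cells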. Cells: human A549 lung cancer cells. Knock-down reagent: siRNA pair against human genes. Timing: 48 h transfection before cisplatin; time from cisplatin to read-out not stated. Challenge: cisplatin at a dose killing half of control-siRNA cells; exact dose and duration not given. Read-out: 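Shift in cisplatin death relative to control siRNA, from -50 (all cells die) to +50 (no cells die); siRNAs harmful on their own scored 0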. Direction: two-siRNA summed score (-2 to +2): higher = both siRNAs protect from cisplatin killing; -2 means both sensitise; mean protection from cisplatin (shift in death) and protection from cisplatin (shift in death), siRNA C and protection from cisplatin (shift in death), siRNA D: higher = protection from cisplatin killing. Call rule: 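Each siRNA scores 0 if harmful alone by LDH or WST-1, otherwise +1 if it reduces and -1 if it increases cisplatin killing; a gene is active when both siRNAs agree (sum +2 or -2)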. Meaning of the calls: active = both siRNAs shift cisplatin killing the same way; inactive = no consistent shift, or siRNA harmful alone.
The deposit covers about 23,000 reagents; below is a part drawn at random. Over the whole deposit, 455 (2%) got an active call. 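Active includes both protection and sensitisation; some change values fall well beyond the stated -50 to +50 range.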 A number with no mark means an inactive call. Not stated in the record: the amount of reagent.

gene knocked down | two-siRNA summed score (-2 to +2) | mean protection from cisplatin (shift in death) (%) | protection from cisplatin (shift in death), siRNA C (%) | protection from cisplatin (shift in death), siRNA D (%)
PCP4 (Purkinje cell protein 4) | 1 | 14.1 | 12.8 | 15.5
LOC400216 | 0 | 3 | 3.4 | 2.6
SSR1 (signal sequence receptor subunit 1) | 2 (active) | 20.7 | 22.9 | 18.5
SLC29A4 | 1 | 10.4 | 8.1 | 12.7
PDIA3 (protein disulfide isomerase family A member 3) | -1 | -10.8 | -17.7 | -3.8
HIBCH (3-hydroxyisobutyryl-CoA hydrolase) | 0 | 3.3 | 2.2 | 4.5
ACSL1 (acyl-CoA synthetase long chain family member 1) | 0 | -7.3 | -17.1 | 2.5
LOC441908 | 1 | 10.8 | 15 | 6.6
LOC441776 | 1 | 15.8 | 14.5 | 17.1
ZNF491 (zinc finger protein 491) | 0 | 0.6 | 10.8 | -9.7
AKR1C6P (aldo-keto reductase family 1 member C6, pseudogene) | 0 | 13.1 | 7.8 | 18.5
TNKS (tankyrase) | 0 | -4 | 0.9 | -8.9
EPS8 (EGFR pathway substrate 8, signaling adaptor) | 0 | 0.3 | 0.8 | -0.2
FILIP1L (filamin A interacting protein 1 like) | 0 | -4.9 | -10.5 | 0.7
WDR73 (WD repeat domain 73) | 0 | -1.3 | 0.8 | -3.4
ZNF274 (zinc finger protein 274) | 0 | -1.8 | 5 | -8.6
RRP7A (ribosomal RNA processing 7 homolog A) | 0 | 0.3 | 2 | -1.3
FNDC5 (fibronectin type III domain containing 5) | 1 | 10.1 | 2.7 | 17.6
LMO1 (LIM domain only 1) | 0 | -1.4 | -11.1 | 8.2
RSPRY1 (ring finger and SPRY domain containing 1) | 0 | 10 | 8.7 | 11.3
PLIN2 (perilipin 2) | -1 | -15 | -18.7 | -11.2
ZNF875 (zinc finger protein 875) | 0 | 12.7 | 13.7 | 11.7
DKFZP434M131 | 1 | 9.5 | -10.5 | 29.5
XRCC5 (X-ray repair cross complementing 5) | 0 | 0.3 | -6 | 6.6
SLC12A3 | 0 | -1 | -3.3 | 1.4
LOC256483 (retired record) | 0 | 8.1 | 7.9 | 8.3
MOS (MOS proto-oncogene, serine/threonine kinase) | 0 | -0.5 | 11.8 | -12.9
TNPO1 (transportin 1) | -1 | -18.3 | -19.5 | -17.1
LINC00029 (long independently transcribed non-coding RNA 29) | 1 | 8.4 | 18.4 | -1.7
LOC442511 | 0 | 5.7 | 2.8 | 8.6
PPIC (peptidylprolyl isomerase C) | 0 | 8 | 6.2 | 9.8
IL11 (interleukin 11) | -1 | -15.2 | -22.9 | -7.4
CRIPAK (retired record) | 0 | 8.2 | 6.7 | 9.7
RHBDF2 (rhomboid 5 homolog 2) | 0 | -5.5 | 1.8 | -12.9
FRG2 (FSHD region gene 2) | 1 | 11.8 | 0.7 | 22.9
RHOXF1 (Rhox homeobox family member 1) | 0 | -6.7 | -1.4 | -12.1
ST8SIA5 (ST8 alpha-N-acetyl-neuraminide alpha-2,8-sialyltransferase 5) | 0 | 5.6 | 1 | 10.3
COL19A1 (collagen type XIX alpha 1 chain) | 0 | 0.2 | 5.2 | -4.8
GNAS (GNAS complex locus) | -1 | -5.7 | 8.2 | -19.5

Records listed so far marked active:
gene knocked down | two-siRNA summed score (-2 to +2) | mean protection from cisplatin (shift in death) (%) | protection from cisplatin (shift in death), siRNA C (%) | protection from cisplatin (shift in death), siRNA D (%)
SSR1 (signal sequence receptor subunit 1) | 2 (active) | 20.7 | 22.9 | 18.5
